Values from PubChem BioAssay AID1159542 (Gurdon Institute, 2015).
Of all reagents, 9 (20%) were called active. 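Means of three or more experiments; every active call is a decrease, none for increased end-joining.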 The numbers tell different reagents against one gene apart.

- Assay: 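Ubiquitin E2 enzymes whose loss alters error-prone end-joining of DNA breaks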
- Cells: human U2OS cells with a traffic light reporter
- Knock-down reagent: siRNA against human genes, about 60 nM siRNA
- Time to read-out: about 72 h
- Treatment: I-SceI nuclease and repair donor plasmids transfected 8 h after siRNA to cut the reporter
- Measured: 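Proportion of red reporter cells after a cut by I-SceI nuclease, measured by flow cytometry relative to a luciferase non-targeting control siRNA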
- Direction: mutagenic end-joining vs control, mean: higher = more mutagenic end-joining than control
- Hit rule: 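a knock-down counts as active when its mean ratio departs from control siRNA by over 40% up or down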

Target gene	reagent	mutagenic end-joining vs control, mean	call
UBE2E1 (ubiquitin conjugating enzyme E2 E1)	1	0.94	inactive
UBE2J2 (ubiquitin conjugating enzyme E2 J2)	1	0.819	inactive
UBE2O (ubiquitin conjugating enzyme E2 O)	1	0.216	active
CDC34 (cell division cycle 34, ubiquitin conjugating enzyme)	1	0.649	inactive
UBE2D2 (ubiquitin conjugating enzyme E2 D2)	1	1.13	inactive
UBE2Q2 (ubiquitin conjugating enzyme E2 Q2)	1	0.608	inactive
UBE2G1 (ubiquitin conjugating enzyme E2 G1)	1	0.728	inactive
UBE2E3 (ubiquitin conjugating enzyme E2 E3)	1	0.705	inactive
UEVLD (UEV and lactate/malate dehyrogenase domains)	1	0.863	inactive
UBE2C (ubiquitin conjugating enzyme E2 C)	1	0.732	inactive
AKTIP (AKT interacting protein)	1	0.984	inactive
LIG3 (DNA ligase 3)	1	0.689	inactive
LIG3 (DNA ligase 3)	2	0.752	inactive
UBE2D3 (ubiquitin conjugating enzyme E2 D3)	1	0.498	active
UBE2K (ubiquitin conjugating enzyme E2 K)	1	0.807	inactive
UBE2V1 (ubiquitin conjugating enzyme E2 V1)	1	0.513	active
UBE2N (ubiquitin conjugating enzyme E2 N)	1	0.918	inactive
UBE2N (ubiquitin conjugating enzyme E2 N)	2	1.09	inactive
UBE2W (ubiquitin conjugating enzyme E2 W)	1	0.549	active

4 entries already listed, sorted by “mutagenic end-joining vs control, mean”, high to low:
Target gene	reagent	mutagenic end-joining vs control, mean	call
UBE2N (ubiquitin conjugating enzyme E2 N)	2	1.09	inactive
UBE2N (ubiquitin conjugating enzyme E2 N)	1	0.918	inactive
UBE2W (ubiquitin conjugating enzyme E2 W)	1	0.549	active
UBE2V1 (ubiquitin conjugating enzyme E2 V1)	1	0.513	active

The list goes on.
Target gene	reagent	mutagenic end-joining vs control, mean	call
UBE2L3 (ubiquitin conjugating enzyme E2 L3)	1	0.633	inactive
UBE2T (ubiquitin conjugating enzyme E2 T)	1	0.509	active
PRKDC (protein kinase, DNA-activated, catalytic subunit)	1	1.19	inactive
UBE2Q1 (ubiquitin conjugating enzyme E2 Q1)	1	1.06	inactive
UBE2F (ubiquitin conjugating enzyme E2 F (putative))	1	0.787	inactive
UBE2Z (ubiquitin conjugating enzyme E2 Z)	1	0.781	inactive
TSG101 (tumor susceptibility 101)	1	0.684	inactive
UBE2H (ubiquitin conjugating enzyme E2 H)	1	0.673	inactive
BIRC6 (baculoviral IAP repeat containing 6)	1	0.756	inactive
UBE2B (ubiquitin conjugating enzyme E2 B)	1	0.726	inactive
UBE2S (ubiquitin conjugating enzyme E2 S)	1	0.989	inactive
UBE2V2 (ubiquitin conjugating enzyme E2 V2)	1	0.515	active
RBBP8 (RB binding protein 8, endonuclease)	1	0.801	inactive
UBE2D1 (ubiquitin conjugating enzyme E2 D1)	1	0.559	active
UBE2U (ubiquitin conjugating enzyme E2 U)	1	0.652	inactive
UBE2A (ubiquitin conjugating enzyme E2 A)	1	0.601	inactive
UBE2NL (ubiquitin conjugating enzyme E2 N like (gene/pseudogene))	1	0.744	inactive
UBE2D4 (ubiquitin conjugating enzyme E2 D4)	1	0.907	inactive
UBE2M (ubiquitin conjugating enzyme E2 M)	1	1.05	inactive
UBE2R2 (ubiquitin conjugating enzyme E2 R2)	1	0.337	active
UBE2L6 (ubiquitin conjugating enzyme E2 L6)	1	0.688	inactive
UBE2E2 (ubiquitin conjugating enzyme E2 E2)	1	0.809	inactive
UBE2G2 (ubiquitin conjugating enzyme E2 G2)	1	0.758	inactive
UBE2J1 (ubiquitin conjugating enzyme E2 J1)	1	0.566	active
